No end group written: not given here.
Test: LC-MS-MS quantification of collagen type II peptide biomarker in human urine
Conditions: FIG. 9, post-translation analog with 4-hydroxyproline at positions 14 and 26
Source text: A biological specimen, for example urine, is collected from the subject. The peptide, which can be referred to as the subject or target peptide, having the appropriate mass, for example m/z 918.7 for (M+3H)3+ (SEQ ID NO: 3) is extracted from the sample using procedures known to the art. See Example 4, below. The sample is spiked with a known quantity of a synthetic peptide (known as the internal standard) having a sequence very similar to the target peptide sequence. For example, peptide […](SEQ ID NO. 14), may be used as an internal standard. […] Comparison of the abundance of the target peptide (area under peak) to the abundance of a standard, normalized by the abundance of an internal standard indicates a relative quantity of target peptide in the sample. More particularly, the area under the curve representing the abundance of the standard peptide is compared to the area under the curve representing t he abundance of the target peptide to obtain a relative quantity of target peptide in a sample. […] Of course, acceptable methods of quantifying the target peptide in a biological sample are encompassed by the scope of the invention. A general quantitation procedure for collagen type II peptide biomarker in human urine is set out below in Example 4 as a representative procedure. […]
7. Solutions are analyzed by LC/MS/MS […]

Sequence: LQGPAGPPGEKGEPGDDGPSGAEGPPGPQG [SEQ ID NO: 2, human collagen type II degradation peptide in urine]
- relative abundance of the peptide in urine (human subject diagnosed with and demonstrating signs and symptoms of osteoarthritis): 8000
- relative abundance of the peptide in urine (urine from normal humans (not detected)): 0

— patent US20030049715A1, “Peptide biomarker and method of identification” (priority 2001, published 2003)
